Assay results reported in patent publication US20240026012A1.
Residue numbers refer to the chain shown, from its start. Results are given in words; binding and its absence hold for the method and conditions named. Some binding calls cover weakened binding; strength is not graded here.

B1: E61 FGFR4 binding polypeptide (VH domain only) (protein)
VH: EVQLVESGGGLVQPGGSLRLSCTFSGFTFSSYAMSWVRQAPGKGLEWMGIIYPGDSNTIYSPSFQGQVTISRDNSKNTLYLQMNSLRAEDTATYYCARSGAYDGRIWFDPWGQGTLVTVSS
B2: D92 FGFR4 binding polypeptide (VH domain only) (protein)
VH: EVQLVESGGGLVQPGGSLRLSCVASGFTFSSYGMHWVRQAPGKGLEWIGYSYYSGSTYYNPSLKSLVTISRDNSKNTLYLQMNSLRAEDTATYYCARDGSSWYSFPYYYGMDVWGQGTTVTVSS
B3: D8 FGFR4 binding polypeptide (VH domain only) (protein)
VH: EVQLVESGGGLVQPGGSLRLSCAASGFTFSNYGMSWVRQAPGKALEWIGEINHSGSTNYNPSLKSRVTISRDNSKNTLYLQMNSLRAEDTAIYYCRGGWVGYWGQGTLVTVSS
B4: F11 FGFR4 binding polypeptide (VH domain only) (protein)
VH: EVQLVESGGGLVQPGGSLRLSCAASGFTFSNYGMSWVRQAPGQGLEWVSYISNGGGTMYYADSVKGRFTISRDNSKNTLYLQMNSLRAEDTATYYCTRAPYCSGGDCYPMSTHELDSWGQGTLVTVSS
B5: H4-VLVH FGFR4 binding polypeptide (scFv)
scFv: DIQMTQSPSSLSASVGDRVTITCRASQSISSYLNWYQQKPGKAPKLLIYAASSLQSGVPSRFSGSGSGTDFTLTISSLQPEDVGVYYCLQITHWPHTFGQGTKLEIKRGGGGSGGGGSGGGGSQVQLVESGGGLVKPGGSLRLSCAASGFTFSDYYMSWIRQAPGKGLEWVSYISSSGSTIYYADSVKGRFTISRDNAKNSLYLQMNSLRAEDTAMYYCARDAPDLLAVPTVIFSGYHYGADVWGQGATVTVSS
B6: G6-VLVH FGFR4 binding polypeptide (scFv)
scFv: DIQMTQSPSSLSASVGDRVTITCRASQSISSYLNWYQQKPGKAPKLLIYAASSLQSGVPSRFSGSGSGTDFTLTISSLQPEDAATYYCQHYGTFGQGTKLEIKRGGGGSGGGGSGGGGSQVQLVESGGGLVKPGGSLRLSCAASGFTFSDYYMSWIRQAPGKGLEWVSYISSSGSTIYYADSVKGRFTISRDNAKNSLYLQMNSLRAEDTAVYYCARHKTSLNDYDFWSGYLLDYWGQGTLVTVSS
B7: C9-VLVH FGFR4 binding polypeptide (scFv)
scFv: DIQMTQSPSSLSASVGDRVTITCRASQSISSYLNWYQQKPGKAPKLLIYAASSLQSGVPSRFSGSGSGTDFTLTISSLQPEDFAVYYCQQRSNWPPTFGQGTKLEIKRGGGGSGGGGSGGGGSQVQLVESGGGLVKPGGSLRLSCAASGFTFSDYYMSWIRQAPGKGLEWVSYISSSGSTIYYADSVKGRFTISRDNAKNSLYLQMNSLRAEDTAKYYCATAVFSLGPEGYYYYMDVWGKGTTVTVSS
B8: D7-VLVH FGFR4 binding polypeptide (scFv)
scFv: DIQMTQSPSSLSASVGDRVTITCRASQSISSYLNWYQQKPGKAPKLLIYAASSLQSGVPSRFSGSGSGTDFTLTISSLQPEDIAAYYCQHYGTFGQGTKLEIKRGGGGSGGGGSGGGGSQVQLVESGGGLVKPGGSLRLSCAASGFTFSDYYMSWIRQAPGKGLEWVSYISSSGSTIYYADSVKGRFTISRDNAKNSLYLQMNSLRAEDTAVYYCARDGYPLGGGYDFWSGYYPDYWGQGTLVTVSS
B9: B7-VLVH FGFR4 binding polypeptide (scFv)
scFv: B6 scFv with A83F, T85V, L100V, V212M
B10: A6-VLVH FGFR4 binding polypeptide (scFv)
scFv: B6 scFv with H90R, L100V, E101D
B11: C1-VLVH FGFR4 binding polypeptide (scFv)
scFv: DIQMTQSPSSLSASVGDRVTITCRASQSISSYLNWYQQKPGKAPKLLIYAASSLQSGVPSRFSGSGSGTDFTLTISSLQPEDAATYYCQHYGTFGQGTKVEIKRGGGGSGGGGSGGGGSQVQLVESGGGLVKPGGSLRLSCAASGFTFSDYYMSWIRQAPGKGLEWVSYISSSGSTIYYADSVKGRFTISRDNAKNSLYLQMNSLRAEDTAVYYCARHAPHKHYDFWSGYYPDYWGQGTLVTVSS

Experiments:
[1] = molecular target: T1, recombinant extracellular domain (ECD) FGFR4 (UniProt P22455); assay: dAb phage display panning on recombinant ECD FGFR4; semELISA
T1 sequence (looked up): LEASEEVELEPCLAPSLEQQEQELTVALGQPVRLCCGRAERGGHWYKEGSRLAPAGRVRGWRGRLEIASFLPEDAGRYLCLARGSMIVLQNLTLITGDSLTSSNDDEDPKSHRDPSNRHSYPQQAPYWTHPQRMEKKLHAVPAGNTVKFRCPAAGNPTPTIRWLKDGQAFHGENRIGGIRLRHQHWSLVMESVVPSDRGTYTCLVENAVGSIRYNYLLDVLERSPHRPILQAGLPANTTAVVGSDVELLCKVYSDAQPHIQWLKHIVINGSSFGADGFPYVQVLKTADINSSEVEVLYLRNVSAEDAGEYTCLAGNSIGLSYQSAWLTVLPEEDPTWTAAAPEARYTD

[2] = molecular target: T1, recombinant extracellular domain (ECD) FGFR4; assay: F(ab)-based phage display library screen

| Binder | binding [1] | binding [2] |
| --- | --- | --- |
| B1 | binds | – |
| B2 | binds | – |
| B3 | binds | – |
| B4 | binds | – |
| B5 | – | binds |
| B6 | – | binds |
| B7 | – | binds |
| B8 | – | binds |
| B9 | – | binds |
| B10 | – | binds |
| B11 | – | binds |
